# This is one part of the list. Repeats are few or missing, and single values can be far off.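 The apoptosis fraction was the count of cleaved-PARP antibody-stained nuclei relative to all DNA-stained nuclei, imaged in 1,536-well plates. Screening doses were set so most cells survived, and baseline and induced cleaved-PARP levels vary greatly across cell lines.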
# What was measured:
# Test in all cases: cleaved PARP positive nuclei fraction relative to DMSO control; melanoma cells; higher = more apoptosis
# Details in all cases: library dose: low library concentration; 72 h
# 501Mel = test system: 501Mel
# A101D = test system: A101D
# A2058 = test system: A2058
# A375 = test system: A375
# C32 = test system: C32
# CBRC008 = test system: CBRC008 (line from a melanoma biopsy)
# CBRC014 = test system: CBRC014 (line from a melanoma biopsy)
# CBRC016 = test system: CBRC016 (line from a melanoma biopsy)
# CBRC017 = test system: CBRC017 (line from a melanoma biopsy)
# CBRC034 = test system: CBRC034 (line from a melanoma biopsy)
# COLO792 = test system: COLO792
# COLO800 = test system: COLO800
# COLO829 = test system: COLO829
# G361 = test system: G361
# IPC-298 = test system: IPC-298
# IST-MEL1 = test system: IST-MEL1
# LB2518-MEL = test system: LB2518-MEL
# LOXIMVI = test system: LOXIMVI
# MEL-HO = test system: MEL-HO
SMILES,cleaved PARP positive nuclei fraction (501Mel),cleaved PARP positive nuclei fraction (A101D),cleaved PARP positive nuclei fraction (A2058),cleaved PARP positive nuclei fraction (A375),cleaved PARP positive nuclei fraction (C32),cleaved PARP positive nuclei fraction (CBRC008),cleaved PARP positive nuclei fraction (CBRC014),cleaved PARP positive nuclei fraction (CBRC016),cleaved PARP positive nuclei fraction (CBRC017),cleaved PARP positive nuclei fraction (CBRC034),cleaved PARP positive nuclei fraction (COLO792),cleaved PARP positive nuclei fraction (COLO800),cleaved PARP positive nuclei fraction (COLO829),cleaved PARP positive nuclei fraction (G361),cleaved PARP positive nuclei fraction (IPC-298),cleaved PARP positive nuclei fraction (IST-MEL1),cleaved PARP positive nuclei fraction (LB2518-MEL),cleaved PARP positive nuclei fraction (LOXIMVI),cleaved PARP positive nuclei fraction (MEL-HO)
"NC(=O)c1ccc(N(C(N)=O)c2c(F)cccc2F)nc1-c1ccc(F)cc1F + CC(=O)O[C@@]12CO[C@@H]1C[C@H](O)[C@@]1(C)C(=O)[C@H](O)C3=C(C)[C@@H](OC(=O)[C@H](O)[C@@H](NC(=O)OC(C)(C)C)c4ccccc4)C[C@@](O)([C@@H](OC(=O)c4ccccc4)[C@H]21)C3(C)C [Docetaxel] (first compound 0.4 µM, partner dose 0.0001 µM)",115%,119%,2580%,583%,454%,643%,135%,2150%,286%,108%,450%,97.1%,190%,614%,168%,290%,370%,121%,140%
"Cn1cnc2c(F)c(Nc3ccc(Br)cc3Cl)c(C(=O)NOCCO)cc21 [selumetinib] + CN(c1ncccc1CNc1nc(Nc2ccc3c(c2)CC(=O)N3)ncc1C(F)(F)F)S(C)(=O)=O [PF562271] (first compound 0.015 µM, partner dose 0.08 µM)",337%,101%,186%,138%,120%,75.9%,98.9%,239%,126%,41.9%,106%,91.1%,101%,202%,92%,34.9%,485%,98.4%,86.7%
"Cn1sc(=O)n(Cc2ccccc2)c1=O + Cn1c(Nc2ccc(C(F)(F)F)cc2)nc2cc(Oc3ccnc(-c4ncc(C(F)(F)F)[nH]4)c3)ccc21 [CHIR265] (first compound 0.4 µM, partner dose 0.08 µM)",88%,146%,130%,138%,107%,111%,248%,43.3%,98.3%,91.5%,335%,70.8%,103%,160%,447%,35.7%,663%,210%,49.5%
"CCCCCCCCc1ccc(CCC(N)(CO)CO)cc1 [fingolimod] + CCCS(=O)(=O)Nc1ccc(F)c(C(=O)c2c[nH]c3ncc(Cl)cc23)c1F [PLX4720] (first compound 2 µM, partner dose 0.08 µM)",188%,137%,24.1%,439%,91.7%,73.9%,114%,61.5%,113%,46.8%,65.8%,100%,86.1%,241%,96.1%,31.6%,193%,110%,93.9%
"CS(=O)(=O)c1ccc(C(=O)Nc2ccc(Cl)c(-c3ccccn3)c2)c(Cl)c1 [vismodegib] + CC(=O)O[C@@]12CO[C@@H]1C[C@H](O)[C@@]1(C)C(=O)[C@H](O)C3=C(C)[C@@H](OC(=O)[C@H](O)[C@@H](NC(=O)OC(C)(C)C)c4ccccc4)C[C@@](O)([C@@H](OC(=O)c4ccccc4)[C@H]21)C3(C)C [Docetaxel] (first compound 1 µM, partner dose 0.0001 µM)",191%,185%,1450%,569%,415%,622%,126%,616%,231%,67.1%,438%,45.2%,242%,566%,182%,173%,128%,24%,95.8%
"CCN(CC)CCNC(=O)c1c(C)[nH]c(/C=C2\C(=O)Nc3ccc(F)cc32)c1C [sunitinib] + O=C(O)c1ccc2c(c1)nc(Nc1cccc(Cl)c1)c1ccncc12 [CX4945] (first compound 0.4 µM, partner dose 0.4 µM)",95.8%,126%,295%,286%,193%,127%,108%,195%,112%,67.2%,122%,82.5%,100%,179%,59.3%,86.9%,208%,129%,131%
"CC1(C)CCC(c2ccc(Cl)cc2)=C(CN2CCN(c3ccc(C(=O)NS(=O)(=O)c4ccc(N[C@H](CCN5CCOCC5)CSc5ccccc5)c(S(=O)(=O)C(F)(F)F)c4)cc3)CC2)C1 + NC1(c2ccc(-c3nc4ccn5c(=O)[nH]nc5c4cc3-c3ccccc3)cc2)CCC1 [MK2206] (first compound 0.4 µM, partner dose 0.4 µM)",149%,237%,162%,838%,147%,644%,670%,428%,382%,74.1%,566%,72.1%,115%,220%,131%,158%,231%,958%,90.4%
"Cn1sc(=O)n(Cc2ccccc2)c1=O + C[C@]1(c2nc3c(C(N)=O)cccc3[nH]2)CCCN1 [Veliparib] (first compound 0.4 µM, partner dose 1.4 µM)",35.5%,148%,192%,104%,65%,47%,97.2%,23.2%,68.2%,26.4%,97.5%,136%,95.5%,117%,28.5%,69.1%,89.8%,65.3%,63.3%
"NC(=O)c1ccc(N(C(N)=O)c2c(F)cccc2F)nc1-c1ccc(F)cc1F + CCN(CC)CCNC(=O)c1c(C)[nH]c(/C=C2\C(=O)Nc3ccc(F)cc32)c1C [sunitinib] (first compound 0.4 µM, partner dose 0.4 µM)",142%,87.8%,150%,112%,79.5%,49.4%,82.8%,113%,114%,137%,42.5%,306%,106%,148%,94.1%,125%,198%,72.5%,57.7%
"COc1ccc(C2=N[C@@H](c3ccc(Cl)cc3)[C@@H](c3ccc(Cl)cc3)N2C(=O)N2CCNC(=O)C2)c(OC(C)C)c1 [Nutlin-3] + C[C@]1(c2nc3c(C(N)=O)cccc3[nH]2)CCCN1 [Veliparib] (first compound 0.1 µM, partner dose 1.4 µM)",298%,153%,103%,374%,85.5%,241%,118%,174%,104%,135%,86.2%,120%,136%,37.9%,129%,90.4%,127%,154%,77.2%
"C[C@@H](N)c1ccc(C(=O)Nc2ccnc3[nH]ccc23)cc1 + Nc1ccn([C@@H]2O[C@H](CO)[C@@H](O)C2(F)F)c(=O)n1 [gemcitabine] (first compound 0.4 µM, partner dose 0.0004 µM)",56.3%,96.5%,87.4%,125%,107%,71.3%,154%,158%,110%,217%,277%,80.1%,96.1%,104%,88.8%,125%,186%,119%,127%
"COc1ccc(C2=N[C@@H](c3ccc(Cl)cc3)[C@@H](c3ccc(Cl)cc3)N2C(=O)N2CCNC(=O)C2)c(OC(C)C)c1 [Nutlin-3] + Cc1nc(Nc2ncc(C(=O)Nc3c(C)cccc3Cl)s2)cc(N2CCN(CCO)CC2)n1 [dasatanib] (first compound 0.1 µM, partner dose 0.004 µM)",162%,188%,55.8%,130%,147%,44.5%,101%,79%,156%,308%,84.4%,172%,176%,88.8%,366%,52.4%,131%,110%,92.2%
"Cn1cnc2c(F)c(Nc3ccc(Br)cc3Cl)c(C(=O)NOCCO)cc21 [selumetinib] + Clc1ccc(Nc2nnc(Cc3ccncc3)c3ccccc23)cc1 [vatalanib] (first compound 0.015 µM, partner dose 2 µM)",756%,56.5%,120%,189%,155%,273%,127%,46.1%,131%,329%,78%,90%,79.2%,119%,124%,173%,164%,61.5%,141%
"NC1(c2ccc(-c3nc4ccn5c(=O)[nH]nc5c4cc3-c3ccccc3)cc2)CCC1 + Nc1ncn([C@H]2C[C@H](O)[C@@H](CO)O2)c(=O)n1 [decitabine] (first compound 0.4 µM, partner dose 0.1 µM)",104%,55.6%,97.3%,267%,97.4%,48.8%,102%,68.6%,115%,92.2%,102%,90.5%,189%,34.5%,273%,162%,60.9%,247%,105%
"COc1ccc(C2=N[C@@H](c3ccc(Cl)cc3)[C@@H](c3ccc(Cl)cc3)N2C(=O)N2CCNC(=O)C2)c(OC(C)C)c1 [Nutlin-3] + COc1ccc(Cl)c(Nc2nc3ccccc3nc2NS(=O)(=O)c2cccc(NC(=O)C(C)(C)N)c2)c1 [XL147] (first compound 0.1 µM, partner dose 0.8 µM)",87.4%,45.6%,95.7%,69.4%,80.5%,240%,103%,131%,152%,70.9%,66.9%,143%,18.7%,63.5%,85.2%,71.3%,242%,60.2%,233%
"NC1(c2ccc(-c3nc4ccn5c(=O)[nH]nc5c4cc3-c3ccccc3)cc2)CCC1 + C=C(c1ccc(C(=O)O)cc1)c1cc2c(cc1C)C(C)(C)CCC2(C)C [Bexarotene] (first compound 0.4 µM, partner dose 2 µM)",88.5%,157%,77.6%,119%,82.3%,196%,90.8%,51.2%,118%,62.8%,129%,62.5%,70.5%,124%,174%,61.9%,112%,90.5%,21.5%

# Pulled one by one from the list above (two):
SMILES,cleaved PARP positive nuclei fraction (501Mel),cleaved PARP positive nuclei fraction (A101D),cleaved PARP positive nuclei fraction (A2058),cleaved PARP positive nuclei fraction (A375),cleaved PARP positive nuclei fraction (C32),cleaved PARP positive nuclei fraction (CBRC008),cleaved PARP positive nuclei fraction (CBRC014),cleaved PARP positive nuclei fraction (CBRC016),cleaved PARP positive nuclei fraction (CBRC017),cleaved PARP positive nuclei fraction (CBRC034),cleaved PARP positive nuclei fraction (COLO792),cleaved PARP positive nuclei fraction (COLO800),cleaved PARP positive nuclei fraction (COLO829),cleaved PARP positive nuclei fraction (G361),cleaved PARP positive nuclei fraction (IPC-298),cleaved PARP positive nuclei fraction (IST-MEL1),cleaved PARP positive nuclei fraction (LB2518-MEL),cleaved PARP positive nuclei fraction (LOXIMVI),cleaved PARP positive nuclei fraction (MEL-HO)
"NC1(c2ccc(-c3nc4ccn5c(=O)[nH]nc5c4cc3-c3ccccc3)cc2)CCC1 + Nc1ncn([C@H]2C[C@H](O)[C@@H](CO)O2)c(=O)n1 [decitabine] (first compound 0.4 µM, partner dose 0.1 µM)",104%,55.6%,97.3%,267%,97.4%,48.8%,102%,68.6%,115%,92.2%,102%,90.5%,189%,34.5%,273%,162%,60.9%,247%,105%
"COc1ccc(C2=N[C@@H](c3ccc(Cl)cc3)[C@@H](c3ccc(Cl)cc3)N2C(=O)N2CCNC(=O)C2)c(OC(C)C)c1 [Nutlin-3] + Cc1nc(Nc2ncc(C(=O)Nc3c(C)cccc3Cl)s2)cc(N2CCN(CCO)CC2)n1 [dasatanib] (first compound 0.1 µM, partner dose 0.004 µM)",162%,188%,55.8%,130%,147%,44.5%,101%,79%,156%,308%,84.4%,172%,176%,88.8%,366%,52.4%,131%,110%,92.2%

# — the supplement of paper PMC4604168 (melanoma cell lines)
